{"sequences": {"note": "The chains behind the UniProt entries cited, without tags or fusion partners. Where a name states a change or a piece, a line headed by the entry shows the natural chain unless it says otherwise.", "UniProt O15379": "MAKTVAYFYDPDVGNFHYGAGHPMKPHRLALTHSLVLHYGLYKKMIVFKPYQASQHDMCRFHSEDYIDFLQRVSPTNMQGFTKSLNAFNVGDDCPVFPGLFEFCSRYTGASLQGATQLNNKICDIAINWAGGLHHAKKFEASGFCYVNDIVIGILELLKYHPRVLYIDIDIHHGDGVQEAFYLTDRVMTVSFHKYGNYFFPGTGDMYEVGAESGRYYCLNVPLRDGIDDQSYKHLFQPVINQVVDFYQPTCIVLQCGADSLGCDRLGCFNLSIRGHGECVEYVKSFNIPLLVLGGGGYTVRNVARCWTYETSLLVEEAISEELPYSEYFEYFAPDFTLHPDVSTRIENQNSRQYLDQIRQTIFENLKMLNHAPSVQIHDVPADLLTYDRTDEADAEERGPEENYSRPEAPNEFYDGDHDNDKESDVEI"}, "source": "PubChem BioAssay AID485318", "about": "(Broad Institute, 2010)", "note": "Hit rate of the full screen: of about 1,400 compounds, fewer than 10 were called active.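 The calls were made as follows: active = fluorescence-lowering compounds whose fitted half-maximal concentration is at or below ten times the highest valid dose tested; inconclusive = flat curve at 30 to 70% inhibition, or poor fit; inactive = the rest.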 The list shows a part of the results.", "data": [{"target": "Histone deacetylase 3 (Homo sapiens) (UniProt O15379)", "assay": "HDAC3 deacetylase inhibitors, dose response, counter-screen for JMJD2C/GASC1 demethylase inhibitor project, biochemical, fluorescence, cherry-picked samples (AID 485318);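 also: enzyme preincubated with compound before substrate and trypsin were added; 0% = neutral control wells and -100% = SAHA positive control wells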", "conditions": "recombinant HDAC3, fluorogenic peptide/trypsin coupled; at 12 µM (top of the series)", "values": [{"smiles": "Cc1nc2c3cc(F)ccc3n(Cc3ccccc3)c2s1", "activity change, negative = inhibition": "inactive: -0.478%"}, {"smiles": "CCC(=O)N1CCc2cc(S(=O)(=O)CCC(=O)Nc3cccc(F)c3)ccc21", "activity change, negative = inhibition": "inactive: 1.26%"}, {"smiles": "Cn1c(=O)c2[nH]c(=O)cnc2n(C)c1=S", "activity change, negative = inhibition": "inactive: 0.57%"}, {"smiles": "CCc1ccc(NC(=O)C/C(C)=N/NC(=O)COc2ccc(C)cc2Br)cc1", "activity change, negative = inhibition": "inactive: 0.354%"}, {"smiles": "O=C(O)CCNc1ccc2c(c1)OCCO2", "activity change, negative = inhibition": "inactive: 0.409%"}, {"smiles": "COCCn1c(C(C)C)nc2sc3ccccc3c(=O)c2c1=O", "activity change, negative = inhibition": "inactive: 0.759%"}, {"smiles": "O=C(Oc1ccc(N2C(=O)CCC2=O)cc1)c1ccccc1", "activity change, negative = inhibition": "inactive: -0.349%"}, {"smiles": "Cc1ccc(C(=O)Oc2csc(=S)n2C(=O)c2ccc(C)cc2)cc1", "activity change, negative = inhibition": "inactive: -0.524%"}, {"smiles": "Cc1ccccc1NC(=O)C1CC(=O)OC12CCOC(C)(C)C2", "note": "(stereo not given)", "activity change, negative = inhibition": "inactive: 0.0138%"}, {"smiles": "O=c1cnnc(Nc2ccccc2)[nH]1", "activity change, negative = inhibition": "inactive: 0.0371%"}, {"smiles": "C[C@H](CO)N1C[C@H](C)[C@@H](CN(C)C(=O)Nc2ccccc2)Oc2c(NC(=O)c3ccncc3)cccc2C1=O", "activity change, negative = inhibition": "inactive: 0.682%"}, {"smiles": "COc1ccc2cc(Br)ccc2c1CC(=O)NCCCN1CCOCC1", "activity change, negative = inhibition": "inactive: 0.0769%"}, {"smiles": "COC(=O)[C@]1(C)N[C@H](CN(C)S(=O)(=O)c2ccc(C)cc2)[C@@H]2C(=O)N(Cc3ccccc3)C(=O)[C@@H]21", "activity change, negative = inhibition": "inactive: -1.14%"}, {"smiles": "COc1ccc(CN2CCNC(=O)C2CC(=O)NCc2csc(C(C)C)n2)c(OC)c1", "note": "(stereo not given)", "activity change, negative = inhibition": "inactive: -0.344%"}, {"smiles": "O=S(=O)(c1ccc2ccccc2c1)N(CC(O)COCc1ccco1)c1ccccc1", "note": "(stereo not given)", "activity change, negative = inhibition": "inactive: 0.206%"}, {"smiles": "COc1ccc(CCNCCN2CCOCC2)cc1", "activity change, negative = inhibition": "inactive: -0.162%"}, {"smiles": "CCc1ccc(CCC(=O)Nc2sc3c(c2C#N)CCCC3)o1", "activity change, negative = inhibition": "inactive: 0.915%"}, {"smiles": "CN1N=C(C(F)(F)F)CC1=O", "activity change, negative = inhibition": "inactive: 0.111%"}, {"smiles": "COc1ccc(C2CC(=O)C=C(NNS(=O)(=O)c3ccc(C)cc3)C2)cc1", "note": "(stereo not given)", "activity change, negative = inhibition": "inactive: 0.256%"}, {"smiles": "CC(=O)c1nnn(-c2nc(N3CCCC3)nc(N(c3ccccc3)c3ccccc3)n2)c1C", "activity change, negative = inhibition": "inactive: 0.111%"}, {"smiles": "O=C(NC1CCCCC1)NC1C2CC3CC(C2)CC1C3", "note": "(stereo not given)", "activity change, negative = inhibition": "inactive: 0.358%"}, {"smiles": "Cc1ccc(O)c(N=NC2=C(O)CC(C)(C)CC2=O)c1", "activity change, negative = inhibition": "inactive: 0.227%"}, {"smiles": "CCOC(=O)c1c(S(=O)(=O)N2CCCC(C(=O)Nc3ccc(C)cn3)C2)c(C)n(C)c1C", "note": "(stereo not given)", "activity change, negative = inhibition": "inactive: 0.917%"}, {"smiles": "Cc1noc(C)c1S(=O)(=O)N(C)C[C@H]1Oc2c(NC(=O)Nc3ccc(C(F)(F)F)cc3)cccc2C(=O)N([C@H](C)CO)C[C@@H]1C", "activity change, negative = inhibition": "inactive: 0.591%"}, {"smiles": "COc1ccc(NS(=O)(=O)c2cccc(C(=O)OCC(=O)Nc3cc(C)on3)c2)cc1", "activity change, negative = inhibition": "inactive: 0.336%"}]}]}
